For at least one compound, name, drawing or mass did not settle the structure. Some entries share one result that the patent states for a list of compounds.
Experiments:
[1] = test system: cultured skin fibroblasts of X-ALD; assay: VLCFA ratios (C26:0/C22:0, C24:0/C22:0) in X-ALD skin fibroblasts; assay type: cell-based, human; details: about 15 days of treatment
[2] = test system: cultured skin fibroblasts of X-ALD; assay: β-oxidation of lignoceric acid in cultured skin fibroblasts of X-ALD; assay type: cell-based, human
[3] = test system: NO production in rat C6 glial cells; assay: LPS-/cytokine-induced NO production (nitrite) in C6 glial cells; assay type: cell-based
iNOS = assay: Expression of iNOS protein (immunoblot) and mRNA (Northern) in rat primary astrocytes; assay type: cell-based; details: 10 μM forskolin or 0.2 μM H-89 15 min before cytokines / LPS
Protocol: Immunoblot analysis for iNOS Following 24 h incubation in the presence or absence of stimuli by different cytokines or LPS, macrophages were scraped off, washed with Hank's buffer, and homogenized in 50 mM Tris-HCl (pH 7.4) containing protease inhibitors ([…] PMSF, 5 μg/ml aprotinin, 5 μg/ml pepstatin A, and 5 μg/ml leupeptin). After electrophoresis the proteins were transferred onto a nitrocellulose membrane, and the iNOS band was visualized by immunoblotting with antibodies against mouse macrophage iNOS and [^125I]-labeled protein A (Singh et al., 1988).
(§1) RNA isolation, Northern blot analysis, and reverse-transcriptase coupled polymerase chain reaction (RT-PCR) Stimulated peritoneal macrophages were taken out from culture dishes directly by adding Ultraspec-II RNA reagent (Biotecx Laboratories Inc.) and total RNA was isolated according to the manufacturer's protocol. […] The relative mRNA content for iNOS was measured after scanning the bands with a Biorad (Model GS-670) imaging densitometer. […]
as §1, with “isolation and” for “isolation,”, “analysis Cells” for “analysis, and reverse-transcriptase coupled polymerase chain reaction (RT-PCR) Stimulated peritoneal macrophages”

[4] = test system: IL-1β production in rat primary astrocytes; assay: LPS-induced IL-1β production (ELISA) in rat primary astrocytes; assay type: cell-based; details: forskolin 10 μM; 8-Br-cAMP 100 μM; rolipram 20 μM; H-89 2 μM; myristoylated PKI 0.4 μM
Protocol: (§2) Determination of TNF-α and IL-1β in culture supernatants Cells were stimulated with LPS in serum-free media for 24 h in the presence or absence of forskolin or rolipram, and concentrations of TNF-α and IL-1β were measured in culture supernatants by using high-sensitivity enzyme-linked immunosorbent assay (R&D Systems, USA) according to the manufacturer's instructions.

[5] = test system: TNF-α production in rat primary astrocytes; assay: LPS-induced TNF-α production (ELISA) in rat primary astrocytes; assay type: cell-based; details: forskolin 10 μM; 8-Br-cAMP 100 μM; rolipram 20 μM; H-89 2 μM; myristoylated PKI 0.4 μM
Protocol: as §2

In the case of `C=C[C@@]1(C)CC(=O)[C@]2(O)[C@@]3(C)[C@@H](O)CCC(C)(C)[C@@H]3[C@H](O)[C@H](OC(C)=O)[C@@]2(C)O1` [forskolin], the “ratios of C26:0/C22:0 and C24:0/C22:0 / level of VLCFA” value [1] is reported as “normalized the level of VLCFA in X-ALD fibroblasts”, the “lignoceric acid β-oxidation” value ([2]; 72 h, forskolin 4 μM, 8-Br-cAMP 50 μM, rolipram 10 μM, H-89 1 μM, myristoylated PKI 0.2 μM) is reported as “stimulated lignoceric acid β-oxidation” and the “LPS- and cytokine-induced NO production” value [3] is reported as “inhibit LPS, and cytokine-induced NO production in rat C6 glial cells”. For the same compound, the “cytokine-induced expression of iNOS” value (iNOS) was “completely inhibited the cytokine-induced expression of iNOS”, the “LPS-stimulated production of IL-1β” value [4] was “inhibited the LPS-stimulated production” and the “LPS-stimulated production of TNF-α” value [5] was “inhibited the LPS-stimulated production”.

With `CC[C@H](C)C(=O)O[C@H]1C[C@@H](C)C=C2C=C[C@H](C)[C@H](CC[C@@H]3C[C@@H](O)CC(=O)O3)[C@H]21` [Lovastatin] the “stimulation of the β-oxidation of lignoceric acid” value ([2]; X-ALD fibroblasts with mutation or deletion, 15 days) was 55-80%.

— patent publication US8507219B2, “Method of treating inflammation with statins” (MUSC Foundation for Research Development, priority 1997, dated 2013)
